Drawing on US20200261490A1, this text covers binding for 2 substances.

Sequences of proteins named here, by UniProt entry; tags and fusion partners are left off. A change or cut given only in a name is not applied to a line headed by its entry. Residues count along the entry.
UniProt Q8R4K8, residues 82-1624: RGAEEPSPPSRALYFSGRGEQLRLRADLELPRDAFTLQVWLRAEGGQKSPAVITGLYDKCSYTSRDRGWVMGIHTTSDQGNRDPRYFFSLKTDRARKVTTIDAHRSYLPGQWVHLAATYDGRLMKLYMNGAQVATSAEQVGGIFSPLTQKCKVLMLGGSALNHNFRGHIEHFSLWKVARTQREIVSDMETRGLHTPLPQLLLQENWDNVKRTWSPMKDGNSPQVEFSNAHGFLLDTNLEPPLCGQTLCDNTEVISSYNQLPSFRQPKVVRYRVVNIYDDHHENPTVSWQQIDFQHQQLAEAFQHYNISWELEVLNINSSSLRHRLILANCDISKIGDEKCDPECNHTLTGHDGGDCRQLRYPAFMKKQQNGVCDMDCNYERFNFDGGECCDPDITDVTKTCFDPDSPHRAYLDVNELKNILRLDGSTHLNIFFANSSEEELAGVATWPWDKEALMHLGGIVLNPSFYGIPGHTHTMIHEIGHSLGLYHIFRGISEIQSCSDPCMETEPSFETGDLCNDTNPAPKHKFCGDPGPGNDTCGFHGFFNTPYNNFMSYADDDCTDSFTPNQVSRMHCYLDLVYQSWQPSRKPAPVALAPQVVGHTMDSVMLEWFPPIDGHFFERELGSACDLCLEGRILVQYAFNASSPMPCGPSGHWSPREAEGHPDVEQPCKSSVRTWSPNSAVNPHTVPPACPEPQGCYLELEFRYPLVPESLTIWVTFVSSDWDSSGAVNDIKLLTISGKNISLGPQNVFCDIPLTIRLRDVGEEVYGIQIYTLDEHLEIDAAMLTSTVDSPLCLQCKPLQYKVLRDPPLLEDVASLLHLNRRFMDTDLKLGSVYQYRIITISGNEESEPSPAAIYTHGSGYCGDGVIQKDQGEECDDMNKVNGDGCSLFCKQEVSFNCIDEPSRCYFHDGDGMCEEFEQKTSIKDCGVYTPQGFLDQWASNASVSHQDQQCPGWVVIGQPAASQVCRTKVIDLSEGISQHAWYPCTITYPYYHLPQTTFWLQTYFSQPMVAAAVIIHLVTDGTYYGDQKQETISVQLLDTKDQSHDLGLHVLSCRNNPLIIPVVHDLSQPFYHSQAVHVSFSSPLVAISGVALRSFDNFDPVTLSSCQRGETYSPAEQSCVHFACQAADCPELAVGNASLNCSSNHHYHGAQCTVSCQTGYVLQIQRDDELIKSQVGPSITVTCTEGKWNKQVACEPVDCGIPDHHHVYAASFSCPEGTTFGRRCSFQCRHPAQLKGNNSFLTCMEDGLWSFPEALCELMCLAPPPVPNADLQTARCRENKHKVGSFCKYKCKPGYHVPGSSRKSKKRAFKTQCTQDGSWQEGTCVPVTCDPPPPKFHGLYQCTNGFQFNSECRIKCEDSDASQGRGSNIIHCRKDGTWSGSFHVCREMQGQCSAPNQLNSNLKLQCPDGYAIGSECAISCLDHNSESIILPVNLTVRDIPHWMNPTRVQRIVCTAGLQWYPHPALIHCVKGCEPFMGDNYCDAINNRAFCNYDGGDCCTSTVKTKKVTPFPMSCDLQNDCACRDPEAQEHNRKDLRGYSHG
UniProt Q9BXP8: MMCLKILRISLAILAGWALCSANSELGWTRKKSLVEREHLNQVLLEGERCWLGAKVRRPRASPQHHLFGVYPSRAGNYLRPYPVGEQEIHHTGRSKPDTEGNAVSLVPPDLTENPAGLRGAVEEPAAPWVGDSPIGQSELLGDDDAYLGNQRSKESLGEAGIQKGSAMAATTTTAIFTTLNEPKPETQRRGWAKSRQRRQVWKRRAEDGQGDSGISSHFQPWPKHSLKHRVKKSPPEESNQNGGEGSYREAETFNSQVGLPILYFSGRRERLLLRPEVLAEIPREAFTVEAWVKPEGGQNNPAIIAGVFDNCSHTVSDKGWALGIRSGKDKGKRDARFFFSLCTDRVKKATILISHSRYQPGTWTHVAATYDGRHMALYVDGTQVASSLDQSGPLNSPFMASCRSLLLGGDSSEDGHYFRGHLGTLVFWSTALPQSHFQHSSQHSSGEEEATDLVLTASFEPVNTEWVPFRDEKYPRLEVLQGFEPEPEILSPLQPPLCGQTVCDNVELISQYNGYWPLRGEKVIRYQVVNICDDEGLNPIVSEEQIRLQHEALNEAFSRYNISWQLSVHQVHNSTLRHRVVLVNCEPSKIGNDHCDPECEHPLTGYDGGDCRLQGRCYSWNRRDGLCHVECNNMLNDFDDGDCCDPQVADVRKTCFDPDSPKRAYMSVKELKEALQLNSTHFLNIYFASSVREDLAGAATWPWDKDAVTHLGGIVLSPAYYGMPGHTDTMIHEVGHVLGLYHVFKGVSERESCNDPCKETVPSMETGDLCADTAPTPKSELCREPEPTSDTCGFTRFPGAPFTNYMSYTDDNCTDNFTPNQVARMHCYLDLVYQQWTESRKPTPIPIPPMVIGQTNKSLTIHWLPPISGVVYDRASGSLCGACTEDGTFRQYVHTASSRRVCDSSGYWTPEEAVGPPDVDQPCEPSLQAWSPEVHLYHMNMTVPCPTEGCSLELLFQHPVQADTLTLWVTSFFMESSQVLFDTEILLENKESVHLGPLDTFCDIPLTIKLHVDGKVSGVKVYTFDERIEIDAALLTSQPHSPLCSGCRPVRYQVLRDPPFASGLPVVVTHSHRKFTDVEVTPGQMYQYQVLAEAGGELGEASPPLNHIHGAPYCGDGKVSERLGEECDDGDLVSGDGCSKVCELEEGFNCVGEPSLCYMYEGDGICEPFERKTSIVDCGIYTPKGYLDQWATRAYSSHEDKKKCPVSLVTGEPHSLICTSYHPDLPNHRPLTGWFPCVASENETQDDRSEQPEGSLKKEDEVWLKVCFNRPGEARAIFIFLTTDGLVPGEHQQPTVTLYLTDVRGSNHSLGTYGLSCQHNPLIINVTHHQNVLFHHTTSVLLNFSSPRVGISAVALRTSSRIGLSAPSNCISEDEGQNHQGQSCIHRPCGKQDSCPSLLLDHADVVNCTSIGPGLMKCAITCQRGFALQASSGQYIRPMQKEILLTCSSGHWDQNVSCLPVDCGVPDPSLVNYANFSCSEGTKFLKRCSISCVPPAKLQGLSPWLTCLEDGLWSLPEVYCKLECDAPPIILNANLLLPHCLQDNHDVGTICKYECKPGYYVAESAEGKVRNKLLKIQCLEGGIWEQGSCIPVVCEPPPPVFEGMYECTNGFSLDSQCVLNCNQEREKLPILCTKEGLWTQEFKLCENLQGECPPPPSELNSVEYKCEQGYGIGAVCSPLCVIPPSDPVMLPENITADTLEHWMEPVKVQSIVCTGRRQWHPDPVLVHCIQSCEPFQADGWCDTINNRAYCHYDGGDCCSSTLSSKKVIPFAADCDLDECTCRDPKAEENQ

Results are given in words; binding and its absence hold for the method and conditions named. Some binding calls cover weakened binding; strength is not graded here.

The target in test [1] is murine PAPP-A (mouse) (UniProt Q8R4K8). As to the kind of experiment: immunoprecipitation with mAb STC221 from MEF medium; PAPP-A Western blot. (In western blotting, separated proteins are transferred to a membrane and probed.)
For test [2] the target is unchanged. As to the kind of experiment: immunoprecipitation with mAb STC221 from MEF medium; Western blot with mAb D8-mIgG2a.
Test [3] has as its target human PAPP-A2 (pappalysin-2) (human) (UniProt Q9BXP8). As to the kind of experiment: PAPP-A2 Western blot of medium from cotransfected HEK293T cells.
Test [4] concerns the target murine PAPP-A (mouse) (UniProt Q8R4K8). As to the kind of experiment: Western blot.

“untagged human STC2 (transgene-derived STC2 of transgenic mice; endogenous STC2 of 293T cells) (from UniProt O76061 25-302)”: the binding result in test [1] and in test [2] was “binds” each time.

For the substance “recombinant human stanniocalcin 2, C-terminally myc-his-tagged (from UniProt O76061 25-302)”, the binding result in test [3] and in test [4] was “binds” in each case.
